# Measured values as given in the supplement of paper PMC4604168 (melanoma cell lines).
# Some of the results follow. Repeats are few or missing, and single values can be far off.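 The apoptosis fraction was the count of cleaved-PARP antibody-stained nuclei relative to all DNA-stained nuclei, imaged in 1,536-well plates. Screening doses were set so most cells survived, and baseline and induced cleaved-PARP levels vary greatly across cell lines.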
# Tested on: IPC-298
# Experiment: cleaved PARP positive nuclei fraction relative to DMSO control; melanoma cells; higher = more apoptosis
# Conditions: library dose: low library concentration; 72 h
row,SMILES,cleaved PARP positive nuclei fraction [%]
1,"NCC(=O)Nc1ccc(-n2nc(C(F)(F)F)cc2-c2ccc3c(ccc4ccccc43)c2)cc1 + O=S(=O)(c1ccccc1)N(CC(F)(F)F)c1ccc(C(O)(C(F)(F)F)C(F)(F)F)cc1 [T0901317] (first compound 1 µM, partner dose 1.4 µM)",72.6
2,"CCCCCCCCCCCC1=C(O)C(=O)C=C(O)C1=O [Embelin] + CC(C)CCN1c2nc(Nc3cc(F)c(O)c(F)c3)ncc2N(C)C(=O)C1C [BID1870] (first compound 1.2 µM, partner dose 0.2 µM)",40.7
3,"CCc1ccc(CCOc2ccc(CC3SC(=O)NC3=O)cc2)nc1 (stereo unspecified) [pioglitazone] + Oc1nc(-c2ccc(C(F)(F)F)cc2)nc2c1CSCC2 [XAV939] (first compound 2 µM, partner dose 2 µM)",38.6
4,"COc1ccc2c(c1)CCC1C2CCC2(C)C(NCCCCCCN3C(=O)C=CC3=O)CCC12 (stereo unspecified) + COc1cc2ncnc(Nc3ccc(Oc4ccccc4)cc3)c2cc1OC [SrcI1] (first compound 0.4 µM, partner dose 2 µM)",58.3
5,"COc1ccc2c(c1)CCC1C2CCC2(C)C(NCCCCCCN3C(=O)C=CC3=O)CCC12 (stereo unspecified) + Oc1cc(-c2nc(-c3ccccc3)[nH]c2-c2ccncc2)ccc1Cl [L779450] (first compound 0.4 µM, partner dose 0.2 µM)",112
6,"COc1cc2ncnc(Nc3ccc(Oc4ccccc4)cc3)c2cc1OC + Cc1cc([N+](=O)[O-])ccc1NS(=O)(=O)c1cc(Cl)ccc1Cl [FH535] (first compound 2 µM, partner dose 1 µM)",202
7,"O=C(Nc1ccccc1)c1cc([N+](=O)[O-])ccc1Cl + CCN(CC)CCCCNc1ncc2cc(-c3cc(OC)cc(OC)c3)c(NC(=O)NC(C)(C)C)nc2n1 [PD173074] (first compound 2 µM, partner dose 0.1 µM)",171
8,"N#Cc1c(O)c2c(-c3ccc(-c4ccccc4O)cc3)csc2[nH]c1=O + O=C(O)C(=O)Nc1sc2c(c1C(=O)O)CCNC2 [TCS401] (first compound 2 µM, partner dose 1.66667 µM)",41.3
9,"NCC(=O)Nc1ccc(-n2nc(C(F)(F)F)cc2-c2ccc3c(ccc4ccccc43)c2)cc1 + Cc1cc([N+](=O)[O-])ccc1NS(=O)(=O)c1cc(Cl)ccc1Cl [FH535] (first compound 1 µM, partner dose 1 µM)",51.8
10,"CCc1ccc(CCOc2ccc(CC3SC(=O)NC3=O)cc2)nc1 (stereo unspecified) [pioglitazone] + CCCCCCCCCCCC1=C(O)C(=O)C=C(O)C1=O [Embelin] (first compound 2 µM, partner dose 1.2 µM)",205
11,"Oc1nc(-c2ccc(C(F)(F)F)cc2)nc2c1CSCC2 + CCCCCCCCCCCC1=C(O)C(=O)C=C(O)C1=O [Embelin] (first compound 2 µM, partner dose 1.2 µM)",75.7
12,"Cc1cc([N+](=O)[O-])ccc1NS(=O)(=O)c1cc(Cl)ccc1Cl + COc1cc(N2CCC(N3CCN(C)CC3)CC2)ccc1Nc1ncc(Cl)c(Nc2ccccc2S(=O)(=O)C(C)C)n1 [NVP-TAE684] (first compound 1 µM, partner dose 0.08 µM)",47.4
13,"COc1cc2ncnc(Nc3ccc(Oc4ccccc4)cc3)c2cc1OC + Cn1cc(/C=C2\C(=O)Nc3cccnc32)c2ccccc21 [GW441756] (first compound 2 µM, partner dose 0.4 µM)",140
14,"CN(C)S(=O)(=O)c1ccc2c(c1)/C(=C/c1cc3c([nH]1)CCCC3)C(=O)N2 + O=C1NC(=O)/C(=C/c2ccc(-c3ccc(F)cc3O)o2)S1 [AS252424] (first compound 0.4 µM, partner dose 1 µM)",129
15,"COc1cc2ncnc(Nc3ccc(Oc4ccccc4)cc3)c2cc1OC + CCCCCCCCCCCC1=C(O)C(=O)C=C(O)C1=O [Embelin] (first compound 2 µM, partner dose 1.2 µM)",70.8
16,"O=C(O)c1ccc(-c2c[nH]c3ncc(-c4ccccc4)cc23)cc1C1CCCC1 + COc1cc2ncnc(Nc3ccc(Oc4ccccc4)cc3)c2cc1OC [SrcI1] (first compound 0.16 µM, partner dose 2 µM)",129
17,"NCC(=O)Nc1ccc(-n2nc(C(F)(F)F)cc2-c2ccc3c(ccc4ccccc43)c2)cc1 + Oc1cc(-c2nc(-c3ccccc3)[nH]c2-c2ccncc2)ccc1Cl [L779450] (first compound 1 µM, partner dose 0.2 µM)",111
18,"COc1cc2c(Oc3ccc4[nH]c(C)cc4c3F)ncnc2cc1OCCCN1CCCC1 [cediranib] + O=C1NC(=O)/C(=C/c2ccc(-c3ccc(F)cc3O)o2)S1 [AS252424] (first compound 0.4 µM, partner dose 1 µM)",56.5

row,SMILES,cleaved PARP positive nuclei fraction [%]
1,"CN(C)S(=O)(=O)c1ccc2c(c1)/C(=C/c1cc3c([nH]1)CCCC3)C(=O)N2 + Cn1cc(/C=C2\C(=O)Nc3cccnc32)c2ccccc21 [GW441756] (first compound 0.4 µM, partner dose 0.4 µM)",38.5
2,"N#Cc1c(O)c2c(-c3ccc(-c4ccccc4O)cc3)csc2[nH]c1=O + Cn1cc(/C=C2\C(=O)Nc3cccnc32)c2ccccc21 [GW441756] (first compound 2 µM, partner dose 0.4 µM)",243
3,"O=C(Nc1ccccc1)c1cc([N+](=O)[O-])ccc1Cl + CCCCCCCCCCCC1=C(O)C(=O)C=C(O)C1=O [Embelin] (first compound 2 µM, partner dose 1.2 µM)",53.1
4,"CCc1ccc(CCOc2ccc(CC3SC(=O)NC3=O)cc2)nc1 (stereo unspecified) [pioglitazone] + O=C(Nc1ccccc1)c1cc([N+](=O)[O-])ccc1Cl [GW9662] (first compound 2 µM, partner dose 2 µM)",109
5,"COc1ccc2c(c1)CCC1C2CCC2(C)C(NCCCCCCN3C(=O)C=CC3=O)CCC12 (stereo unspecified) + CCCCCCCCCCCC1=C(O)C(=O)C=C(O)C1=O [Embelin] (first compound 0.4 µM, partner dose 1.2 µM)",53.3
6,"Oc1cc(-c2nc(-c3ccccc3)[nH]c2-c2ccncc2)ccc1Cl + CCCCCCCCCCCC1=C(O)C(=O)C=C(O)C1=O [Embelin] (first compound 0.2 µM, partner dose 1.2 µM)",202
7,"Oc1cc(-c2nc(-c3ccccc3)[nH]c2-c2ccncc2)ccc1Cl + Cc1cc([N+](=O)[O-])ccc1NS(=O)(=O)c1cc(Cl)ccc1Cl [FH535] (first compound 0.2 µM, partner dose 1 µM)",83.4
8,"COc1cc2c(Oc3ccc4[nH]c(C)cc4c3F)ncnc2cc1OCCCN1CCCC1 [cediranib] + CCCCCCCCCCCC1=C(O)C(=O)C=C(O)C1=O [Embelin] (first compound 0.4 µM, partner dose 1.2 µM)",53.1
9,"NCC(=O)Nc1ccc(-n2nc(C(F)(F)F)cc2-c2ccc3c(ccc4ccccc43)c2)cc1 + Cn1cc(/C=C2\C(=O)Nc3cccnc32)c2ccccc21 [GW441756] (first compound 1 µM, partner dose 0.4 µM)",28.5
10,"Oc1nc(-c2ccc(C(F)(F)F)cc2)nc2c1CSCC2 + O=c1cc(-c2cccc3c2Sc2ccccc2S3)oc(N2CCOCC2)c1 [KU55933] (first compound 2 µM, partner dose 1 µM)",115
11,"O=C(O)C(=O)Nc1sc2c(c1C(=O)O)CCNC2 + O=C1NC(=O)/C(=C/c2ccc(-c3ccc(F)cc3O)o2)S1 [AS252424] (first compound 1.66667 µM, partner dose 1 µM)",41.9
12,"COC(=O)c1sccc1S(=O)(=O)Nc1ccc(Nc2ccccc2)cc1OC + COc1cc(N2CCC(N3CCN(C)CC3)CC2)ccc1Nc1ncc(Cl)c(Nc2ccccc2S(=O)(=O)C(C)C)n1 [NVP-TAE684] (first compound 1 µM, partner dose 0.08 µM)",197
13,"NCC(=O)Nc1ccc(-n2nc(C(F)(F)F)cc2-c2ccc3c(ccc4ccccc43)c2)cc1 + COc1ccc(-c2ccc3c(N4CCOCC4)nc(N4C[C@@H](C)O[C@@H](C)C4)nc3n2)cc1CO [KU0063794] (first compound 1 µM, partner dose 0.02 µM)",105
14,"CN(C)S(=O)(=O)c1ccc2c(c1)/C(=C/c1cc3c([nH]1)CCCC3)C(=O)N2 + N#Cc1c(O)c2c(-c3ccc(-c4ccccc4O)cc3)csc2[nH]c1=O [A769662] (first compound 0.4 µM, partner dose 2 µM)",81.3
15,"CN(C)S(=O)(=O)c1ccc2c(c1)/C(=C/c1cc3c([nH]1)CCCC3)C(=O)N2 + Oc1nc(-c2ccc(C(F)(F)F)cc2)nc2c1CSCC2 [XAV939] (first compound 0.4 µM, partner dose 2 µM)",73.6
16,"COc1cc2ncnc(Nc3ccc(Oc4ccccc4)cc3)c2cc1OC + Oc1cc(-c2nc(-c3ccccc3)[nH]c2-c2ccncc2)ccc1Cl [L779450] (first compound 2 µM, partner dose 0.2 µM)",33.7
17,"NCC(=O)Nc1ccc(-n2nc(C(F)(F)F)cc2-c2ccc3c(ccc4ccccc43)c2)cc1 + CCCCCCCCCCCC1=C(O)C(=O)C=C(O)C1=O [Embelin] (first compound 1 µM, partner dose 1.2 µM)",38.3
18,"COc1cc2ncnc(Nc3ccc(Oc4ccccc4)cc3)c2cc1OC + c1cc(-c2cnn3cc(-c4ccc(OCCN5CCCCC5)cc4)cnc23)ccn1 [Dorsomorphin] (first compound 2 µM, partner dose 0.4 µM)",174

# An excerpt of these results, with tabs:
row	SMILES	cleaved PARP positive nuclei fraction [%]
15	CN(C)S(=O)(=O)c1ccc2c(c1)/C(=C/c1cc3c([nH]1)CCCC3)C(=O)N2 + Oc1nc(-c2ccc(C(F)(F)F)cc2)nc2c1CSCC2 [XAV939] (first compound 0.4 µM, partner dose 2 µM)	73.6
16	COc1cc2ncnc(Nc3ccc(Oc4ccccc4)cc3)c2cc1OC + Oc1cc(-c2nc(-c3ccccc3)[nH]c2-c2ccncc2)ccc1Cl [L779450] (first compound 2 µM, partner dose 0.2 µM)	33.7
